# For part of these data: The name of at least one read-out is uncertain. At least one compound was matched to its structure with a doubt left.
# Experiments:
# [1] = 750 mg TID of Compound 2, over the treatment period
# DENV4 RdRp domain = test: Thermal shift assay, DENV4 RdRp domain; settings: RdRp domain DENV4, 100 μM compound
# DENV1 RdRp domain = test: Thermal shift assay, DENV1 RdRp domain; settings: RdRp domain DENV1, 100 μM compound
# DENV3 RdRp domain = test: Thermal shift assay, DENV3 RdRp domain; settings: RdRp domain DENV3, 100 μM compound
SMILES,plasma concentration relative to the EC90 against dengue virus in vitro [1],ΔTM (DENV4 RdRp domain),ΔTM (DENV1 RdRp domain),ΔTM (DENV1 RdRp domain; listed as sinefungin),ΔTM (DENV3 RdRp domain)
"CNc1nc(N)nc2c1ncn2[C@@H]1O[C@H](CO[P@](=O)(N[C@@H](C)C(=O)OC(C)C)Oc2ccccc2)[C@@H](O)[C@@]1(C)F [Compound 1, isopropyl ((R)-(((2R,3R,4R,5R)-5-(2-amino-6-(methylamino)-9H-purin-9-yl)-4-fluoro-3-hydroxy-4-methyltetrahydrofuran-2-yl)methoxy)(phenoxy)phosphoryl)-L-alaninate]",maintained above the EC90,–,–,–,–
"C[C@@]1(F)[C@H](O)[C@@H](CO)O[C@H]1n1cnc2c(=O)[nH]c(N)nc21 [Compound 6, 2′-fluoro-2′-C-methylguanosine]",exceeding the 90% effective concentration (EC90),–,–,–,–
"Nc1ncnc2c1ncn2[C@@H]1O[C@H](C[C@@H](N)CC[C@H](N)C(=O)O)[C@@H](O)[C@H]1O [Sinefungin, sinefungin]",–,−0.1 ± 0.1 °C,−0.1 ± 0.1 °C,0.1 °C,0.0 ± 0.1 °C
